The text below walks through data of article PMC5658604.

This data set concerns the target T1, TtSmtB (Thermus thermophilus HB27) (UniProt Q72KG0).
T1 sequence (looked up): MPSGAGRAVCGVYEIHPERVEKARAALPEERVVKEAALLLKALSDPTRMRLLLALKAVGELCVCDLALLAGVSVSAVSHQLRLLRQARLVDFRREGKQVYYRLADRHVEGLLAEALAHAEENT
The data set is described as follows: EMSA. The conditions noted are these: 50- and 100-fold molar excess, 2.5 uM protein, EMSA as in Fiorentino et al., 2007 (buffer not given here), 0-15 uM protein, 1 nM probe in the competition assay, footprinting in binding buffer, DNase I 1 min at 37 C, recombinant protein, residues 1-123, protein details: His tag (pET28b) removed by thrombin, probe letters rebuilt from the primers and the genome.

The exact form of at least one protein or probe is not confirmed. The comparison behind a weaker result is the experiment's own reference, which may not be listed here. Where a protein sequence is shown, tags need not be part of it.

Take “CGCCTCGCCGACCGGCACGTGGAGGGCCTGTTGGCGGAGGCCCTGGCCCACGCGGAAGAAAACACTTGACCAGTTGCTCAAATGATGCTACCCTGGGGGCATGAAGGCTCCCAGAGTGCGCGTCTTCCGGGTAGAGGGCATGG (double strand) [0354p (TTC0354 promoter)]”: the binding result is listed as “binds more weakly” (arsenate (KH2AsO4)) and “binds more weakly” (arsenite (NaAsO2), less efficient than arsenate).
